# In PubChem BioAssay AID445 (National Center for Advancing Translational Sciences (NCATS), 2006):
# The other results are listed elsewhere or left out. These are further read-outs of the screen, such as a control signal, another cell line or another target. No call is given for them. The list favours compounds with an active or inconclusive main result. Potencies come from curve fits of mixed quality, noted in brackets.
# Assay: IkB Signaling
# Settings: ABC-DLBCL IkBa-CBG/CBR dual luciferase ratio (green luciferase fused to IkBa over red control in OCI-Ly3 lymphoma cells), 4 h
# Method in brief: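 Curves were fitted separately to fusion (green), unfused (red) and ratio luminescence, then classed by r2, magnitude and activity. Cells: OCI-Ly3, 4 h compound plus doxycycline at 37C; 10 uM MG-132 defined full response.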
# [1] = measured here: control luc red channel unless noted
smiles,measurement,setting,value
CCOc1cccc(C(=O)Nc2ccc(-c3nc4cc(C)cc(C)c4o3)cc2)c1,AC50,[1],"7.94 µM [falling, full curve, poor fit]"
CCCCN(Cc1ccco1)C(=O)c1cc2c(s1)-c1c(C)cccc1OC2,AC50,[1],"31.6 µM [falling, single point]"
CCOCCCNC(=O)Cn1cc2c(n1)-c1c(oc(C(=O)N3CCCC3)c1C)CC2,AC50,[1],"25.1 µM [falling, single point]"
CCc1ccccc1NC(=O)c1cnn(-c2ccc(F)cc2)c1C1CCNCC1,AC50,[1],"2 µM [falling, full curve, poor fit]"
Cc1cccc(OCCOCCn2c(-c3ccc(Cl)cc3)nc3ccccc3c2=O)c1C,AC50,[1],"2.51 µM [rising, partial curve]"
CC(C)c1ccc(NC(=O)c2cnn3c(C(F)F)cc(-c4ccccc4)nc23)cc1,AC50,[1],"6.31 µM [rising, full curve]"
CCOC(=O)C1CCCN(CC(=O)NC2=Nc3ccccc3N=C(C)C2c2ccccc2)C1 (stereo unspecified),AC50,[1],"12.6 µM [falling, partial curve]"
Cc1cccc(NC(=O)CN2C(=O)COc3ccc(Cl)cc32)c1,AC50,[1],"15.8 µM [falling, partial curve]"
COc1cc(O)ccc1-c1nc2cc(C)ccn2c1Nc1ccccc1C,AC50,[1],"10 µM [falling, partial curve]"
Cc1cccc2c(=O)cc(CSc3ccccc3NC(=O)c3cccc(Br)c3)[nH]c12,AC50,[1],"15.8 µM [falling, partial curve]"
CCc1ccc(S(=O)(=O)Nc2cccc(-c3ccc(OC)nn3)c2)s1,AC50,[1],"12.6 µM [falling, partial curve, poor fit]"
COc1ccc(C2c3sc(=O)[nH]c3SC3C(=O)N(c4ccccc4)C(=O)C32)cc1 (stereo unspecified),AC50,[1],"10 µM [falling, partial curve]"
CCOc1ccccc1NC(=O)NCc1noc2ccc(C)cc12,AC50,[1],"20 µM [falling, partial curve]"
COc1cc(C(=O)NCC(c2ccc3c(c2)OCO3)N2CCN(C)CC2)cc(OC)c1OC (stereo unspecified),AC50,[1],"1 µM [rising, full curve, poor fit]"
CC(C)c1ccc2oc(-c3cc(NC(=O)c4cccnc4)ccc3Cl)nc2c1,AC50,[1],"15.8 µM [falling, partial curve]"
COc1cccc(NC(=O)c2sc3nc(C)c(C(=O)Nc4ccc(C)cc4C)c(-c4ccc(C)o4)c3c2N)c1,AC50,[1],"7.94 µM [falling, full curve]"
Cc1noc(C)c1COC(=O)c1cc(F)c(F)cc1Cl,AC50,[1],"20 µM [falling, partial curve]"
Cc1cccc(NC(=O)CN2C(=O)CC(c3ccccc3)Sc3ccccc32)c1 (stereo unspecified),AC50,[1],"10 µM [falling, partial curve]"
COc1ccc(-c2nc(-c3ccc(NC(=O)c4ccncc4)cc3)no2)cc1OC,AC50,measured here: IkB-luc green channel,"3.98 µM [falling, full curve]"
same,AC50,measured here: control luc red channel,"3.16 µM [falling, full curve]"
CC(CNC(=O)c1csc2c1CCCCC2)c1ccccc1 (stereo unspecified),AC50,[1],"0.631 µM [rising, full curve]"
O=C(Nc1cccc(O)c1)c1cc(-c2ccccc2F)no1,AC50,[1],"25.1 µM [falling, single point]"
O=C(NCc1cccc(Cl)c1)c1ccc2c(Cl)c3c(nc2c1)CCCC3,AC50,[1],"7.94 µM [falling, partial curve]"
COc1ccc(CCN2C(=O)N(c3ccc(C)cc3)C(=O)C2CC(=O)Nc2ccc(OC)cc2)cc1 (stereo unspecified),AC50,[1],"39.8 µM [falling, partial curve, poor fit]"
COc1ccccc1NC(=O)c1c(NCc2ccc(C)o2)sc2c1CCC(C)C2 (stereo unspecified),AC50,[1],"10 µM [falling, partial curve]"
CC(C(=O)Nc1cc(C(F)(F)F)ccc1Cl)n1nnc2sc3c(c2c1=O)CCCC3 (stereo unspecified),AC50,[1],"20 µM [falling, single point]"
COc1cccc(CNC(=O)c2nn(-c3ccccc3Cl)nc2CO)c1,AC50,[1],"15.8 µM [falling, single point]"
Cc1ccccc1C(=O)NCc1nc2cccnc2n1Cc1ccccc1,AC50,[1],"25.1 µM [falling, single point]"
CCC(Sc1nnnn1-c1ccccc1)C(=O)Nc1nc2ccccc2s1 (stereo unspecified),AC50,[1],"12.6 µM [falling, partial curve]"
Cc1ccc2oc(-c3ccc(C)c(NC(=O)c4ccc(C(C)(C)C)cc4)c3)nc2c1,AC50,[1],"15.8 µM [falling, partial curve]"
Cc1ccc(-c2csc(=Nc3ccccc3)n2Cc2ccc3c(c2)OCO3)cc1C,AC50,[1],"3.98 µM [falling, full curve]"
C[N+]1(CCCCC[N+]2(C)CCCC2)CCCC1,AC50,[1],"39.8 µM [rising, partial curve, poor fit] [measured here: IkB-luc green channel]"
N#Cc1c(NC(=O)CSc2nc(N)cc(=O)[nH]2)sc2c1CCCCCC2,AC50,[1],"7.94 µM [falling, full curve, poor fit]"
CCOC(=O)CNC(=O)N1CCc2cc(S(=O)(=O)N3CCC(C)CC3)ccc21,AC50,[1],"20 µM [falling, partial curve]"
Cc1cccc(OC(=O)c2cc(-c3ccc4c(c3)OCCO4)on2)c1,AC50,[1],"25.1 µM [falling, single point]"
CC(C)(C)OC(=O)N1CCC(c2c(C(=O)N3CCN(c4ncccn4)CC3)cnn2-c2ccccc2)CC1,AC50,[1],"0.01 µM [rising, full curve]"
O=C1CC(N2CCN(c3ccc(O)cc3)CC2)C(=O)N1Cc1cccs1 (stereo unspecified),AC50,[1],"12.6 µM [falling, partial curve]"
COc1ccc(-c2nc3ccccc3o2)cc1NC(=O)C(C)Oc1ccc(Cl)cc1Cl (stereo unspecified),AC50,[1],"12.6 µM [falling, partial curve]"
CC(C)C12CN3CC(C(C)C)(CN(C1)C3c1ccc(Cl)cc1)C2=O (stereo unspecified),AC50,[1],"25.1 µM [falling, single point]"
Cc1nc2ccccc2n1CCc1nc2c3ccccc3nc(SCC(=O)Nc3ccc(Br)cc3F)n2n1,AC50,[1],"15.8 µM [rising, partial curve, poor fit]"
CN1CCN(c2oc(-c3ccc(COc4ccc(Cl)cc4)o3)nc2C#N)CC1,AC50,[1],"20 µM [falling, partial curve]"

# Some of the entries so far, as tab-separated lines:
smiles	measurement	setting	value
Cc1cccc(NC(=O)CN2C(=O)COc3ccc(Cl)cc32)c1	AC50	[1]	15.8 µM [falling, partial curve]
COc1ccc(-c2nc(-c3ccc(NC(=O)c4ccncc4)cc3)no2)cc1OC	AC50	measured here: control luc red channel	3.16 µM [falling, full curve]
CC(CNC(=O)c1csc2c1CCCCC2)c1ccccc1 (stereo unspecified)	AC50	[1]	0.631 µM [rising, full curve]
Cc1ccc2oc(-c3ccc(C)c(NC(=O)c4ccc(C(C)(C)C)cc4)c3)nc2c1	AC50	[1]	15.8 µM [falling, partial curve]
